Results reported in article PMC10465233, “Lys-urea-Aad, Lys-urea-Cmc and Lys-urea-Cms as potential pharmacophores for the design of PSMA-targeted radioligands to reduce off-target uptake in kidneys and salivary glands” (Theranostics, 2023).

Columns and labels:
[1] = test system: LNCaP tumors; design: method as in earlier work; conditions: cited from earlier work
[2] = design: method as in earlier work; conditions: cited from earlier work
[3] = test system: LNCaP tumors; assay: Radiation dosimetry, unit density sphere model for LNCaP tumors (OLINDA); format: in vivo, mouse
[4] = Radiation dosimetry for major organs of 25-g mice (OLINDA, MOBY phantom); format: in vivo, mouse
Description: Internal dosimetry estimates were calculated using the organ level internal dose assessment (OLINDA) software v.2.2 following our previously published procedures. These estimates were performed for the mouse using the 25g MOBY phantom, and for the tumors using the previously reported unit density sphere model. Both the phantom and the sphere model are available in OLINDA and require the input of the total number of decays normalized by injected activity in units of MBq×h/MBq for each of the source organ/tumor.
The biodistribution data (available in Table S5-S7) were used to determine the kinetics input values required by OLINDA. First, each of the values was decayed to its corresponding time point (the values on the table are shown at injection time). Then the different time-points of the uptake data (%ID/g) for each organ were fitted to both mono-exponential (%ID/g = ae^⎯bt) and bi-exponential (%ID/g = ae^⎯bt + ce^⎯dt) functions using in-house software developed in Python. The best fit was selected based on maximizing the coefficient of determination (R^2) of the fit and minimizing the residuals. The areas under the curves were analytically calculated based on the parameters obtained from the best fit of each organ and this provided the kinetic input values required by OLINDA.
In the mouse case, the adrenals, blood, fat, and muscle are not modeled in the phantom. These organs were grouped together and included in what OLINDA calls the remainder of the body. Lastly, the numbers of decays in the tumors were also calculated based on the biodistribution data of the mice and the values were inputted into the sphere model available in OLINDA.

[5] = target organ Remainder of the body

O=C([O-])CN1CCN(CC(=O)[O-])CCN(CC(=O)NCC2CCC(C(=O)NC(Cc3c4ccccc4cc4ccccc34)C(=O)NCCCCC(NC(=O)NC(CCCC(=O)O)C(=O)O)C(=O)O)CC2)CCN(CC(=O)[O-])CC1.[177Lu+3] (stereo not shown) [[^177Lu]Lu-HTK03149]
Radiation dose to LNCaP tumor ([1]; sphere/tumor volume 0.01 mL): 7.53E+04 mGy/MBq
Radiation dose to LNCaP tumor ([1]; sphere/tumor volume 0.1 mL): 7.87E+03 mGy/MBq
Radiation dose to LNCaP tumor ([1]; sphere/tumor volume 0.5 mL): 1.60E+03 mGy/MBq
Radiation dose to LNCaP tumor ([1]; sphere/tumor volume 1 mL): 8.06E+02 mGy/MBq
Radiation dose to LNCaP tumor ([1]; sphere/tumor volume 2 mL): 4.05E+02 mGy/MBq
Radiation dose to LNCaP tumor ([1]; sphere/tumor volume 4 mL): 2.03E+02 mGy/MBq
Radiation dose to LNCaP tumor ([1]; sphere/tumor volume 6 mL): 1.36E+02 mGy/MBq
Radiation dose to LNCaP tumor ([1]; sphere/tumor volume 8 mL): 1.02E+02 mGy/MBq
Radiation dose to LNCaP tumor ([1]; sphere/tumor volume 10 mL): 8.17E+01 mGy/MBq
Radiation dose to LNCaP tumor ([1]; sphere/tumor volume 20 mL): 4.10E+01 mGy/MBq
Radiation dose to LNCaP tumor ([1]; sphere/tumor volume 40 mL): 2.06E+01 mGy/MBq
Radiation dose to LNCaP tumor ([1]; sphere/tumor volume 60 mL): 1.37E+01 mGy/MBq
Radiation dose to LNCaP tumor ([1]; sphere/tumor volume 80 mL): 1.03E+01 mGy/MBq
Radiation dose to LNCaP tumor ([1]; sphere/tumor volume 100 mL): 8.28E+00 mGy/MBq
Radiation dose to LNCaP tumor ([1]; sphere/tumor volume 300 mL): 2.79E+00 mGy/MBq
Radiation dose to LNCaP tumor ([1]; sphere/tumor volume 400 mL): 2.10E+00 mGy/MBq
Radiation dose to LNCaP tumor ([1]; sphere/tumor volume 500 mL): 1.68E+00 mGy/MBq
Radiation dose to LNCaP tumor ([1]; sphere/tumor volume 600 mL): 1.40E+00 mGy/MBq
Radiation dose to LNCaP tumor ([1]; sphere/tumor volume 1000 mL): 8.48E-01 mGy/MBq
Radiation dose to LNCaP tumor ([1]; sphere/tumor volume 2000 mL): 4.29E-01 mGy/MBq
Radiation dose to LNCaP tumor ([1]; sphere/tumor volume 3000 mL): 2.88E-01 mGy/MBq
Radiation dose to LNCaP tumor ([1]; sphere/tumor volume 4000 mL): 2.17E-01 mGy/MBq
Radiation dose to LNCaP tumor ([1]; sphere/tumor volume 5000 mL): 1.75E-01 mGy/MBq
Radiation dose to LNCaP tumor ([1]; sphere/tumor volume 6000 mL): 1.46E-01 mGy/MBq
Organ dose ([2]; target organ Brain): 2.35E+00 mGy/MBq
Organ dose ([2]; target organ Heart): 9.38E+00 mGy/MBq
Organ dose ([2]; target organ Kidneys): 6.72E+01 mGy/MBq
Organ dose ([2]; target organ Large intestine): 1.59E+01 mGy/MBq
Organ dose ([2]; target organ Liver): 2.09E+01 mGy/MBq
Organ dose ([2]; target organ Lungs): 1.62E+01 mGy/MBq
Organ dose ([2]; target organ Pancreas): 7.72E+00 mGy/MBq
Organ dose [2, 5]: 8.95E+00 mGy/MBq
Organ dose ([2]; target organ Skeleton): 7.45E+00 mGy/MBq
Organ dose ([2]; target organ Small intestine): 1.57E+01 mGy/MBq
Organ dose ([2]; target organ Spleen): 1.89E+01 mGy/MBq
Organ dose ([2]; target organ Stomach): 1.57E+01 mGy/MBq
Organ dose ([2]; target organ Testes): 8.72E+00 mGy/MBq
Organ dose ([2]; target organ Thyroid): 1.29E+01 mGy/MBq
Organ dose ([2]; target organ Urinary bladder): 5.84E+02 mGy/MBq

COc1ccc(CCCC(=O)NCC(=O)N[C@@H](CCCCNC(=O)CN2CCN(CC(=O)[O-])CCN(CC(=O)[O-])CCN(CC(=O)[O-])CC2)C(=O)NC[C@H]2CC[C@H](C(=O)N[C@@H](Cc3c4ccccc4cc4ccccc34)C(=O)NCCCC[C@H](NC(=O)N[C@@H](CCCC(=O)O)C(=O)O)C(=O)O)CC2)cc1.[177Lu+3] [[^177Lu]Lu-HTK03170]
Radiation dose to LNCaP tumor xenografts relative to [^177Lu]Lu-HTK03149 ([3]; mouse, in vivo): 6.7 fold
Radiation dose to LNCaP tumor xenografts relative to [^177Lu]Lu-PSMA-617 ([3]; mouse, in vivo): 16.4 fold
Radiation dose to LNCaP tumor ([3]; sphere/tumor volume 0.01 mL): 5.02E+05 mGy/MBq
Radiation dose to LNCaP tumor ([3]; sphere/tumor volume 0.1 mL): 5.25E+04 mGy/MBq
Radiation dose to LNCaP tumor ([3]; sphere/tumor volume 0.5 mL): 1.07E+04 mGy/MBq
Radiation dose to LNCaP tumor ([3]; sphere/tumor volume 1 mL): 5.38E+03 mGy/MBq
Radiation dose to LNCaP tumor ([3]; sphere/tumor volume 2 mL): 2.70E+03 mGy/MBq
Radiation dose to LNCaP tumor ([3]; sphere/tumor volume 4 mL): 1.36E+03 mGy/MBq
Radiation dose to LNCaP tumor ([3]; sphere/tumor volume 6 mL): 9.06E+02 mGy/MBq
Radiation dose to LNCaP tumor ([3]; sphere/tumor volume 8 mL): 6.80E+02 mGy/MBq
Radiation dose to LNCaP tumor ([3]; sphere/tumor volume 10 mL): 5.45E+02 mGy/MBq
Radiation dose to LNCaP tumor ([3]; sphere/tumor volume 20 mL): 2.74E+02 mGy/MBq
Radiation dose to LNCaP tumor ([3]; sphere/tumor volume 40 mL): 1.37E+02 mGy/MBq
Radiation dose to LNCaP tumor ([3]; sphere/tumor volume 60 mL): 9.17E+01 mGy/MBq
Radiation dose to LNCaP tumor ([3]; sphere/tumor volume 80 mL): 6.90E+01 mGy/MBq
Radiation dose to LNCaP tumor ([3]; sphere/tumor volume 100 mL): 5.52E+01 mGy/MBq
Radiation dose to LNCaP tumor ([3]; sphere/tumor volume 300 mL): 1.86E+01 mGy/MBq
Radiation dose to LNCaP tumor ([3]; sphere/tumor volume 400 mL): 1.40E+01 mGy/MBq
Radiation dose to LNCaP tumor ([3]; sphere/tumor volume 500 mL): 1.12E+01 mGy/MBq
Radiation dose to LNCaP tumor ([3]; sphere/tumor volume 600 mL): 9.37E+00 mGy/MBq
Radiation dose to LNCaP tumor ([3]; sphere/tumor volume 1000 mL): 5.66E+00 mGy/MBq
Radiation dose to LNCaP tumor ([3]; sphere/tumor volume 2000 mL): 2.87E+00 mGy/MBq
Radiation dose to LNCaP tumor ([3]; sphere/tumor volume 3000 mL): 1.92E+00 mGy/MBq
Radiation dose to LNCaP tumor ([3]; sphere/tumor volume 4000 mL): 1.45E+00 mGy/MBq
Radiation dose to LNCaP tumor ([3]; sphere/tumor volume 5000 mL): 1.17E+00 mGy/MBq
Radiation dose to LNCaP tumor ([3]; sphere/tumor volume 6000 mL): 9.76E-01 mGy/MBq
Kidney radiation dose relative to [^177Lu]Lu-HTK03149 ([4]; mouse, in vivo): 5.6 fold
Kidney radiation dose relative to [^177Lu]Lu-PSMA-617 ([4]; mouse, in vivo): 1.7 fold
Radiation dose to various organs relative to [^177Lu]Lu-HTK03149 ([4]; mouse, in vivo): 1.4- to 8.4 fold
Radiation dose to various organs relative to [^177Lu]Lu-PSMA-617 ([4]; mouse, in vivo): 1.4- to 26.5 fold
Skeleton absorbed dose relative to [^177Lu]Lu-PSMA-617 ([4]; skeleton as surrogate for bone marrow): 23.4 fold
Organ dose ([4]; target organ Brain): 1.98E+01 mGy/MBq
Organ dose ([4]; target organ Heart): 4.55E+01 mGy/MBq
Organ dose ([4]; target organ Kidneys): 3.74E+02 mGy/MBq
Organ dose ([4]; target organ Large intestine): 3.27E+01 mGy/MBq
Organ dose ([4]; target organ Liver): 7.50E+01 mGy/MBq
Organ dose ([4]; target organ Lungs): 6.90E+01 mGy/MBq
Organ dose ([4]; target organ Pancreas): 3.01E+01 mGy/MBq
Organ dose [4, 5]: 3.18E+01 mGy/MBq
Organ dose ([4]; target organ Skeleton): 2.93E+01 mGy/MBq
Organ dose ([4]; target organ Small intestine): 3.21E+01 mGy/MBq
Organ dose ([4]; target organ Spleen): 9.14E+01 mGy/MBq
Organ dose ([4]; target organ Stomach): 4.00E+01 mGy/MBq
Organ dose ([4]; target organ Testes): 6.22E+01 mGy/MBq
Organ dose ([4]; target organ Thyroid): 4.31E+01 mGy/MBq
Organ dose ([4]; target organ Urinary bladder): 8.08E+02 mGy/MBq

Where two headings read alike, the source gives them in different places.
